# Laboratory results from the supplement of paper PMC11438910.
# This is one part of the list. The signal is at background level for most entries.
# B1: 4-173.5 (protein)
# chain 1: QLQLQESGPGLVKPSETLSLTCAVSGDSISSNYWSWIRQPPGKGLEWIGRISDGGGSTDYNPSLKSRVTISTDTSKNQFSLKLNSVTAADTAVYFCARGSYRVDYWGQGVLVTVSS
# chain 2: QAALTQPPSMSGSPGQSVTISCTGASSDIGGYNRVSWYQQHPANAPKLMIYDVSKRPSGVSDRFSGSKSGNTASLTISGLQADDEADYYCSSYAHINTALFGGGTRLTVL
# Legend:
# Assay in all cases: fluorescence intensity of antibody binding to polysaccharide-coupled beads; higher = stronger binding
# [1] = molecular target: pneumococcal polysaccharide Pn34
# [2] = molecular target: pneumococcal polysaccharide Pn35A
# [3] = molecular target: pneumococcal polysaccharide Pn35B
# [4] = molecular target: pneumococcal polysaccharide Pn35C
# [5] = molecular target: pneumococcal polysaccharide Pn35F
# [6] = molecular target: pneumococcal polysaccharide Pn36
# [7] = molecular target: pneumococcal polysaccharide Pn37
# [8] = molecular target: pneumococcal polysaccharide Pn38
# [9] = molecular target: pneumococcal polysaccharide Pn39
# [10] = molecular target: pneumococcal polysaccharide Pn4
# [11] = molecular target: pneumococcal polysaccharide Pn40
# [12] = molecular target: pneumococcal polysaccharide Pn41A
# [13] = antibody concentration 0.1 ng/mL
# [14] = antibody concentration 0.534724 ng/mL
# [15] = antibody concentration 2.8593 ng/mL
# [16] = antibody concentration 15.2894 ng/mL
# [17] = antibody concentration 81.7561 ng/mL
# [18] = antibody concentration 437.17 ng/mL
# [19] = antibody concentration 2337.65 ng/mL
# [20] = antibody concentration 12500 ng/mL
binder,measurement,setting,value
B1,fluorescence intensity,[1]; [13],13.5 MFI
same,fluorescence intensity,[1]; [14],13.8 MFI
same,fluorescence intensity,[1]; [15],16.2 MFI
same,fluorescence intensity,[1]; [16],22.8 MFI
same,fluorescence intensity,[1]; [17],85.5 MFI
same,fluorescence intensity,[1]; [18],502 MFI
same,fluorescence intensity,[1]; [19],1900 MFI
same,fluorescence intensity,[1]; [20],3080 MFI
same,fluorescence intensity,[2]; [13],16.5 MFI
same,fluorescence intensity,[2]; [14],17 MFI
same,fluorescence intensity,[2]; [15],22.8 MFI
same,fluorescence intensity,[2]; [16],47 MFI
same,fluorescence intensity,[2]; [17],237 MFI
same,fluorescence intensity,[2]; [18],1320 MFI
same,fluorescence intensity,[2]; [19],4280 MFI
same,fluorescence intensity,[2]; [20],6690 MFI
same,fluorescence intensity,[3]; [13],18.5 MFI
same,fluorescence intensity,[3]; [14],17 MFI
same,fluorescence intensity,[3]; [15],20 MFI
same,fluorescence intensity,[3]; [16],31.5 MFI
same,fluorescence intensity,[3]; [17],136 MFI
same,fluorescence intensity,[3]; [18],704 MFI
same,fluorescence intensity,[3]; [19],2240 MFI
same,fluorescence intensity,[3]; [20],3250 MFI
same,fluorescence intensity,[4]; [13],20 MFI
same,fluorescence intensity,[4]; [14],18 MFI
same,fluorescence intensity,[4]; [15],21.5 MFI
same,fluorescence intensity,[4]; [16],27.5 MFI
same,fluorescence intensity,[4]; [17],88 MFI
same,fluorescence intensity,[4]; [18],517 MFI
same,fluorescence intensity,[4]; [19],2270 MFI
same,fluorescence intensity,[4]; [20],3630 MFI
same,fluorescence intensity,[5]; [13],21.2 MFI
same,fluorescence intensity,[5]; [14],17.5 MFI
same,fluorescence intensity,[5]; [15],18.5 MFI
same,fluorescence intensity,[5]; [16],29.5 MFI
same,fluorescence intensity,[5]; [17],124 MFI
same,fluorescence intensity,[5]; [18],561 MFI
same,fluorescence intensity,[5]; [19],2070 MFI
same,fluorescence intensity,[5]; [20],2980 MFI
same,fluorescence intensity,[6]; [13],15 MFI
same,fluorescence intensity,[6]; [14],16.5 MFI
same,fluorescence intensity,[6]; [15],17 MFI
same,fluorescence intensity,[6]; [16],26 MFI
same,fluorescence intensity,[6]; [17],94.5 MFI
same,fluorescence intensity,[6]; [18],484 MFI
same,fluorescence intensity,[6]; [19],1990 MFI
same,fluorescence intensity,[6]; [20],3600 MFI
same,fluorescence intensity,[7]; [13],28 MFI
same,fluorescence intensity,[7]; [14],26 MFI
same,fluorescence intensity,[7]; [15],28.5 MFI
same,fluorescence intensity,[7]; [16],38 MFI
same,fluorescence intensity,[7]; [17],112 MFI
same,fluorescence intensity,[7]; [18],535 MFI
same,fluorescence intensity,[7]; [19],2210 MFI
same,fluorescence intensity,[7]; [20],4650 MFI
same,fluorescence intensity,[8]; [13],26 MFI
same,fluorescence intensity,[8]; [14],26.5 MFI
same,fluorescence intensity,[8]; [15],27.2 MFI
same,fluorescence intensity,[8]; [16],34 MFI
same,fluorescence intensity,[8]; [17],104 MFI
same,fluorescence intensity,[8]; [18],403 MFI
same,fluorescence intensity,[8]; [19],1310 MFI
same,fluorescence intensity,[8]; [20],2260 MFI
same,fluorescence intensity,[9]; [13],18.2 MFI
same,fluorescence intensity,[9]; [14],18.2 MFI
same,fluorescence intensity,[9]; [15],19 MFI
same,fluorescence intensity,[9]; [16],24.5 MFI
same,fluorescence intensity,[9]; [17],81.5 MFI
same,fluorescence intensity,[9]; [18],445 MFI
same,fluorescence intensity,[9]; [19],1910 MFI
same,fluorescence intensity,[9]; [20],3140 MFI
same,fluorescence intensity,[10]; [13],18.5 MFI
same,fluorescence intensity,[10]; [14],18 MFI
same,fluorescence intensity,[10]; [15],19 MFI
same,fluorescence intensity,[10]; [16],22.8 MFI
same,fluorescence intensity,[10]; [17],41 MFI
same,fluorescence intensity,[10]; [18],129 MFI
same,fluorescence intensity,[10]; [19],498 MFI
same,fluorescence intensity,[10]; [20],1090 MFI
same,fluorescence intensity,[11]; [13],16.5 MFI
same,fluorescence intensity,[11]; [14],17 MFI
same,fluorescence intensity,[11]; [15],21.5 MFI
same,fluorescence intensity,[11]; [16],46.8 MFI
same,fluorescence intensity,[11]; [17],217 MFI
same,fluorescence intensity,[11]; [18],1070 MFI
same,fluorescence intensity,[11]; [19],3530 MFI
same,fluorescence intensity,[11]; [20],5800 MFI
same,fluorescence intensity,[12]; [13],26 MFI
same,fluorescence intensity,[12]; [14],22.2 MFI

# Some of the entries so far, bar-delimited.
binder | measurement | setting | value
B1 | fluorescence intensity | [2]; [19] | 4280 MFI
same | fluorescence intensity | [10]; [14] | 18 MFI

# Part of the list above, as tab-separated lines:
binder	measurement	setting	value
B1	fluorescence intensity	[1]; [17]	85.5 MFI
same	fluorescence intensity	[9]; [19]	1910 MFI
